Experimental data: PubChem BioAssay AID1259327 (Drosophila RNAi Screening Center, 2017)
Shown is one part, drawn at random, of about 3,100 reagents tested. Over the whole deposit, 378 (12%) were called active. 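Hits include both directions; z-score sign shows ATP rise or fall; raw luminescence values are not plate-normalised.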 Reagent sequences are not shown. Not stated in the record: the amount of reagent.

Test: 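Data from controls in screens of zinc and manganese toxicity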
Cell system: Drosophila S2R+ cells
Reagent: long dsRNA against Drosophila genes
Timing: 5 days (water added on day 4, read one day later)
Challenge: water added as vehicle, no metal, one day before read-out
Read-out: 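Luciferase ATP signal per well, normalised to plate mean, duplicate average converted to z-score across plates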
Reading the numbers: ATP z-score: higher = more total ATP than typical wells; ATP luminescence: higher = more total ATP
Hit rule: 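Called active when the ATP z-score exceeds 1.5 or falls below -1.5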
Calls: active = hit: ATP up or down; inactive = no clear ATP change

Against promL [DRSC08733] the deposit lists ATP z-score, duplicate mean -0.0336; ATP luminescence, replicate 1 (RLU) = 7.53e5; ATP luminescence, replicate 2 (RLU) = 7.01e5; inactive.
With knock-down of CG14232 [DRSC19588], the record shows ATP z-score, duplicate mean -0.0201; ATP luminescence, replicate 1 (RLU) = 7.36e5; ATP luminescence, replicate 2 (RLU) = 6.72e5; inactive.
CG14232 [DRSC27714] showed ATP z-score, duplicate mean -1.31; ATP luminescence, replicate 1 (RLU) = 8.89e5; ATP luminescence, replicate 2 (RLU) = 1.01e6; inactive.
For Nmda1 [DRSC07479], the values are ATP z-score, duplicate mean -0.00366; ATP luminescence, replicate 1 (RLU) = 6.64e5; ATP luminescence, replicate 2 (RLU) = 8.00e5; inactive.
Silencing of Nmda1 [DRSC26357] resulted in: ATP z-score, duplicate mean 0.708; ATP luminescence, replicate 1 (RLU) = 8.75e5; ATP luminescence, replicate 2 (RLU) = 1.00e6; inactive.
With knock-down of Ir47a [DRSC06215] the results were ATP z-score, duplicate mean 1.55; ATP luminescence, replicate 1 (RLU) = 6.67e5; ATP luminescence, replicate 2 (RLU) = 8.53e5; active.
With knock-down of Or19a [DRSC20684] the results were ATP z-score, duplicate mean 1.29; ATP luminescence, replicate 1 (RLU) = 8.47e5; ATP luminescence, replicate 2 (RLU) = 9.21e5; inactive.
With knock-down of Fad2 [DRSC11165], the record shows ATP z-score, duplicate mean -1.34; ATP luminescence, replicate 1 (RLU) = 7.77e5; ATP luminescence, replicate 2 (RLU) = 6.67e5; inactive.
For Fad2 [DRSC23579], the values are ATP z-score, duplicate mean -0.448; ATP luminescence, replicate 1 (RLU) = 8.34e5; ATP luminescence, replicate 2 (RLU) = 7.54e5; inactive.
Depletion of GlyT [DRSC04512] resulted in: ATP z-score, duplicate mean -0.798; ATP luminescence, replicate 1 (RLU) = 6.51e5; ATP luminescence, replicate 2 (RLU) = 6.32e5; inactive.
GlyT [DRSC26130] showed ATP z-score, duplicate mean -0.0651; ATP luminescence, replicate 1 (RLU) = 8.27e5; ATP luminescence, replicate 2 (RLU) = 8.58e5; inactive.
CG16727 [DRSC15139] scored ATP z-score, duplicate mean -0.525; ATP luminescence, replicate 1 (RLU) = 2.61e5; ATP luminescence, replicate 2 (RLU) = 7.43e5; inactive.
Knock-down of CG16727 [DRSC26820] came out at: ATP z-score, duplicate mean 1.8; ATP luminescence, replicate 1 (RLU) = 1.13e6; ATP luminescence, replicate 2 (RLU) = 8.51e5; active.
Depletion of jef [DRSC06198] gave: ATP z-score, duplicate mean 0.394; ATP luminescence, replicate 1 (RLU) = 7.43e5; ATP luminescence, replicate 2 (RLU) = 5.67e5; inactive.
For jef [DRSC24815], the values are ATP z-score, duplicate mean 0.0971; ATP luminescence, replicate 1 (RLU) = 7.99e5; ATP luminescence, replicate 2 (RLU) = 8.24e5; inactive.
Depletion of Syx17 [DRSC08591] gave: ATP z-score, duplicate mean 0.71; ATP luminescence, replicate 1 (RLU) = 7.92e5; ATP luminescence, replicate 2 (RLU) = 8.22e5; inactive.

No new results follow: entries from further up.
Fad2 [DRSC11165] — ATP z-score, duplicate mean = -1.34; ATP luminescence, replicate 1 (RLU) = 7.77e5; ATP luminescence, replicate 2 (RLU) = 6.67e5; Call = inactive
Fad2 [DRSC23579] — ATP z-score, duplicate mean = -0.448; ATP luminescence, replicate 1 (RLU) = 8.34e5; ATP luminescence, replicate 2 (RLU) = 7.54e5; Call = inactive
